{"source": "patent US11560559B2", "about": "“Inducing production of full-length progranulin (GRN) from nucleotides including mutations containing a premature stop codon (PTC)” (University of Kentucky Research Foundation, priority 2018, dated 2023)", "key": {"R493X progranulin": {"tested_on": "R493X progranulin", "experiment": "Read-through of progranulin R493X nonsense mutation in transfected N2A cells (FLAG Western blot)", "assay_type": "cell-based, human", "details": "N2A cells transfected with R493X progranulin, two concentrations of each compound, 24 hours", "description": "(§1) The WT progranulin plasmid with a C-terminal FLAG tag (pC-Flag-PGRN-WT) was purchased from Sino Biological Inc. (Cat. HG10826-CF). Three nonsense mutations, Q125X, R229X and R493X, were generated using Q5 site-directed mutagenesis kit (New England Biolabs Inc., Cat. E0554S) to introduce a single nucleotide substitution in the WT progranulin gene (FIG. 1A). The WT progranulin with an N-terminal HA tag (HA-PGRN) was also generated by subcloning using the p3xHA vector (58) and HindIII and BamHI sites.\n(§2) N2A cells were maintained in DMEM (Sigma, D5796) supplemented with 10% fetal bovine serum, 100 unit/mL penicillin, and 100 μg/mL streptomycin. […]\n(§3) WT progranulin and three plasmids each with a single nonsense mutation (Q125X, Y229X, or R493X) and a C-terminal Flag tag (FIG. 1A) were constructed. A full-length protein must be generated for the FLAG to be detected, thus a truncated progranulin will not be detected by FLAG Western blotting. If read-through of the progranulin PTC occurs, then progranulin will be detectable by FLAG Western blotting.\nR493X, which is the most common nonsense mutation in progranulin-mediated familial FTD (8, 31), was chosen to test whether aminoglycosides could induce read-through. […] Cells were lysed and analyzed by Western blotting to determine the amount of progranulin protein. […]"}, "Q125X progranulin": {"tested_on": "Q125X progranulin", "experiment": "Read-through of progranulin Q125X nonsense mutation in transfected N2A cells (FLAG Western blot)", "assay_type": "cell-based, human", "details": "24 hours", "description": "as §1, §2, §3\n(§4) Whether G418 or gentamicin could induce read-through of two additional progranulin nonsense mutations (Q125X or Y229X) and a FUS nonsense mutation R495X that has been identified in juvenile patients of the related neurodegenerative disease ALS was also tested."}, "Y229X progranulin": {"tested_on": "Y229X progranulin", "experiment": "Read-through of progranulin Y229X nonsense mutation in transfected N2A cells (FLAG Western blot)", "assay_type": "cell-based, human", "details": "24 hours", "description": "as §1, §2, §3, §4"}, "R495X FUS": {"tested_on": "R495X FUS", "experiment": "Read-through of FUS R495X nonsense mutation in transfected N2A cells (FLAG Western blot)", "assay_type": "cell-based", "details": "three concentrations, 24 hours", "description": "Examination of G418 on the R495X mutation of FUS responsible for familial ALS. WT or R495X FUS was tagged with FLAG at the N-terminus. N2A cells were transfected with WT or R495X FUS, allowed to recover, and treated with three concentrations of G418 for 24 hours. Cells were harvested and cell lysates were subjected to SDS-PAGE and Western analysis using anti-FLAG (top) and anti-actin (lower) antibodies. The slightly higher band is WT FUS and the lower band is R495X truncated FUS.\nN2A cells were maintained in DMEM (Sigma, D5796) supplemented with 10% fetal bovine serum, 100 unit/mL penicillin, and 100 μg/mL streptomycin. Transient transfection was performed using Lipofectamine 2000 (Invitrogen, Life Technologies, Grand Island, N.Y., USA). […] was used for each well of 6-well plate unless otherwise described. After 6 hours transfection, fresh medium containing aminoglycoside at indicated concentrations was added to cells. Cells were applied to following experiments after exposed to drugs at certain time points. All cells were kept in a humidified incubator at 37° C. under 5% CO2/95% air. […]\nas §4"}, "R493X progranulin mRNA": {"tested_on": "R493X progranulin mRNA", "experiment": "Full-length progranulin R493X mRNA level in N2A cells (qPCR)", "assay_type": "cell-based, human", "details": "different doses of G418, 24 hours", "description": "N2A cells were exposed to G418 treatment for 24 hours with indicated concentrations after transfection. Primers specific for full length PGRN mRNA were used for qPCR. All results were normalized to full length WT progranulin in non-treated cells. N.S.: no significance. **, p<0.01; ***, p<0.001.\nTotal RNA was extracted with Aurum total RNA mini kit (BioRad, Cat. 732-6820), and cDNA was generated with SuperScript III first-strand synthesis system for RT-PCR (Invitrogen, Cat. 18080-051). Quantitive PCR was performed using SYBR Green (ThermoScientific, Cat. 4309155). Beta-actin primers: forward 5′-AGAGCTATGAGCTGCCTGAC-3′ (SEQ ID NO: 1); reverse 5′-GGATGTCAACGTCACACTTC-3′(SEQ ID NO: 2). Primers used for full length progranulin mRNA (including flag encoding sequence) is: forward 5′-CGTGAAGGCTTGATCCTGCGAGA-3′ (SEQ ID NO: 3), reverse 5′-CTTATCGTCATCCTTGTAATC-3′ (SEQ ID NO: 4). Annealing temperature for both beta-actin and progranulin qPCR reaction were 60° C.\nIn addition to inducing read-through, it has been reported that aminoglycosides can also stabilize mRNAs, which could enhance the read-through effect (35, 36). Therefore, qPCR was used to determine the mRNA levels in the absence and presence of G418."}, "dystrophin PTC": {"tested_on": "dystrophin PTC", "details": "reported (ref. 23); cited from earlier work"}, "CFTR PTC": {"tested_on": "CFTR PTC", "details": "reported (refs. 21, 22); cited from earlier work"}, "[1]": {"tested_on": "Xeroderma pigmentosum complementation group C (XPC) mRNA", "details": "reported (ref. 57); cited from earlier work"}}, "note": "Entries after “also recorded” stand apart in the source; their conditions may differ. At least one compound was matched to its structure with a doubt left."}
{"smiles": "CN[C@@H]1[C@@H](O)[C@@H](O[C@@H]2[C@@H](O)[C@H](O[C@H]3O[C@H]([C@@H](C)O)[C@@H](O)[C@H](O)[C@H]3N)[C@@H](N)C[C@H]2N)OC[C@]1(C)O", "note": "[G418]", "values": [{"measurement": "read-through of R493X progranulin (FLAG-positive bands in Western blot)", "setting": "R493X progranulin", "result": "induced FLAG bands; also recorded: induced read-through"}, {"measurement": "read-through of Q125X progranulin (full-length protein by FLAG antibody)", "setting": "Q125X progranulin", "result": "no readthrough effect; also recorded: did not have any read-through effect"}, {"measurement": "read-through of Y229X progranulin (full-length protein by FLAG antibody)", "setting": "Y229X progranulin", "result": "no readthrough effect; also recorded: did not have any read-through effect"}, {"measurement": "read-through of FUS R495X (full-length protein)", "setting": "R495X FUS", "result": "did not induce readthrough; also recorded: did not induce read-through"}, {"measurement": "increase of full-length mRNA containing R493X mutation compared to absence of G418", "setting": "R493X progranulin mRNA", "result": "up to two-fold"}, {"measurement": "read-through of the dystrophin PTC", "setting": "dystrophin PTC", "result": "~10", "unit": "%"}, {"measurement": "read-through of the CFTR PTC", "setting": "CFTR PTC", "result": "20-35%"}, {"measurement": "level of XPC mRNA containing nonsense mutations, % of normal level", "setting": "[1]", "result": "20%-70%"}]}
